Experimental data reported in paper PMC3225368, “A Conformational Switch in the Active Site of BT_2972, a Methyltransferase from an Antibiotic Resistant Pathogen B. thetaiotaomicron” (PLoS ONE, 2011).
Results are given in words; binding and its absence hold for the method and conditions named.

Target: BT_2972, AdoMet-dependent methyltransferase from Bacteroides thetaiotaomicron VPI-5482 (Bacteroides thetaiotaomicron VPI-5482) (UniProt Q8A3I2)
Assay: SEC + other: dynamic light scattering; gel filtration in Tris-HCl (pH 8.0), 200 mM NaCl; dynamic light scattering of the purified protein; both purified

B1: BT_2972, AdoMet-dependent methyltransferase from Bacteroides thetaiotaomicron VPI-5482 (enzyme, UniProt Q8A3I2 1-257)
chain: MSNNNTSIHDFDFSFICNYFKLLKRQGPGSPEATRKAVSFINELTDDAKIADIGCGTGGQTLFLADYVKGQITGIDLFPDFIEIFNENAVKANCADRVKGITGSMDNLPFQNEELDLIWSEGAIYNIGFERGMNEWSKYLKKGGFIAVSEASWFTSERPAEIEDFWMDAYPEISVIPTCIDKMERAGYTPTAHFILPENCWTEHYFAPQDEVRETFMKEHAGNKTAMDFMKGQQYERSLYSKYKDYYGYVFYIGQKR
binding: no binding
